Data from BigSolDB 2.1.

CCCCc1oc2ccccc2c1C(=O)c1cc(I)c(OCCN(CC)CC)c(I)c1.Cl
solubility (mole fraction)
Conditions | 293.2 K | 298.2 K | 303.2 K | 308.2 K | 313.2 K
in NMP | 0.00923 | 0.012 | 0.0137 | 0.0173 | 0.0199
in ethanol | 0.0012 | 0.00158 | 0.00235 | 0.00468 | 0.00673
in water | 4.59e-06 | 6.45e-06 | 8.38e-06 | 9.58e-06 | 1.22e-05
